Some entries share one result that the patent states for a list of compounds. At least one compound was matched to its structure with a doubt left.
Target: T1, glucocorticoid receptors (GR) (Rattus norvegicus, UniProt P06536)
T1 construct: glucocorticoid receptors (GR) derived form rat liver; from tissue; host or cells: rat liver
T1 sequence (P06536 1-795): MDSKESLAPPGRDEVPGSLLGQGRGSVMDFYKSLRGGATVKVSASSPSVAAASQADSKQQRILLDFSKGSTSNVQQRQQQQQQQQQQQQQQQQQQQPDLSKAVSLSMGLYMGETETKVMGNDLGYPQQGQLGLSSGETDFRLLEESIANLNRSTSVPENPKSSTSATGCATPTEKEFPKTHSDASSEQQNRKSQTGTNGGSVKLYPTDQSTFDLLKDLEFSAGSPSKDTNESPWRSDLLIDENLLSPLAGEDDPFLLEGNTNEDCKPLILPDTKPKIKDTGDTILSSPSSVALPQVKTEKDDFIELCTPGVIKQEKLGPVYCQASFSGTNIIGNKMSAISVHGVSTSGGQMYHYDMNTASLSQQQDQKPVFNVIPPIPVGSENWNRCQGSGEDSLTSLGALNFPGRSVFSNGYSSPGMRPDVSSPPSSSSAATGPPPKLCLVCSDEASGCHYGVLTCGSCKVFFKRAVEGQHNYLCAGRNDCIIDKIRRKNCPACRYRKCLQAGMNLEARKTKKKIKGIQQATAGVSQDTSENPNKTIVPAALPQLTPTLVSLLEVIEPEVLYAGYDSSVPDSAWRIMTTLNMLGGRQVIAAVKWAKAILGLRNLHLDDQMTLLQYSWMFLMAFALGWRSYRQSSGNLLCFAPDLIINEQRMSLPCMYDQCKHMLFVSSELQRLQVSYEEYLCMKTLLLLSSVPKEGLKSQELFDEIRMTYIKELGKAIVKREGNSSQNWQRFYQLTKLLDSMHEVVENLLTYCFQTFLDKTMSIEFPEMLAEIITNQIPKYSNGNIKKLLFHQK
Experiment: binding assay using glucocorticoid receptors derived from rat liver and 3H-dexamethazone
Conditions: GR derived from rat liver
Protocol: Each biding assay was conducted in a similar manner as the procedure described in The Journal of Pharmacology and Experimental Therapeutics, 1987; 240:p. 650-656.

O=C1C(c2ccc(Cl)cc2)Oc2cc([N+](=O)[O-])ccc2N1Cc1ccccc1 (centres unmarked) [4-benzyl-2-(4-chlorophenyl)-7-nitro-2H-1,4-benzoxizin-3 (4H)-one]
Ki: < 10 µM

4-(4-fluorophenyl)-2,2-dimethyl-7-nitro-3-phenyl-2H-1,4-benzoxizin-3 (4H)-one
Ki: < 10 µM

CC1(C)Oc2cc([N+](=O)[O-])ccc2N(Cc2ccccc2)C1=O [4-benzyl-2,2-dimethyl-7-nitro-2H-1,4-benzoxizin-3 (4H)-one]
Ki: < 10 µM

CC1(C)Oc2cc([N+](=O)[O-])ccc2N(/C=C/c2ccccc2)C1=O [2,2-dimethyl-7-nitro-4-[(E)-2-phenylvinyl]-2H-1,4-benzoxizin-3 (4H)-one]
Ki: < 10 µM

Nc1ccc2c(c1)OC(c1ccc(Cl)cc1)C(=O)N2Cc1ccccc1 (centres unmarked) [7-amino-4-benzyl-2-(4-chlorophenyl)-7-nitro-2H-1,4-benzoxizin-3(4H)-one]
Ki: < 10 µM
